# Results of single-concentration screens

Sequences of proteins named here, by UniProt entry; tags and fusion partners are left off.
UniProt P9WFT3, whole entry: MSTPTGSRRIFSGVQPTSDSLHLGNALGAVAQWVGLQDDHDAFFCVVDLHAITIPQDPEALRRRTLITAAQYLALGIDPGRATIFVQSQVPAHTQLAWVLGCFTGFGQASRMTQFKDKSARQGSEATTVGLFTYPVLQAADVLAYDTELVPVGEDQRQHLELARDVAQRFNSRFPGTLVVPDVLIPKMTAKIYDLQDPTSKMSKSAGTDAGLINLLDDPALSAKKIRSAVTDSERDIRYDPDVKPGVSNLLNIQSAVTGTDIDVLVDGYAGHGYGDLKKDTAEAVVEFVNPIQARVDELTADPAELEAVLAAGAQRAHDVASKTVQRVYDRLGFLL
UniProt P9WPC5, whole entry: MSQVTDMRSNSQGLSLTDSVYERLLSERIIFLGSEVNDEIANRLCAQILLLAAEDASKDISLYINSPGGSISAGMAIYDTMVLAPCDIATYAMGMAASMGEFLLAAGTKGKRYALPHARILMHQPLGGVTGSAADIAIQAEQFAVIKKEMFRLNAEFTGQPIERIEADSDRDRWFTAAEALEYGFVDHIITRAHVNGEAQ
UniProt P9WPC3, whole entry partner: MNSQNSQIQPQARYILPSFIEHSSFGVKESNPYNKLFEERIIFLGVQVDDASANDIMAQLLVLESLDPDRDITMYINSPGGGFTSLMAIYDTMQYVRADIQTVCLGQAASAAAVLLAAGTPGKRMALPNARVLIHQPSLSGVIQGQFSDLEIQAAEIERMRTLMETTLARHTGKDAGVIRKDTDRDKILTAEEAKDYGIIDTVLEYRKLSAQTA

Data taken from ChEMBL document CHEMBL3988442, “University of Dundee, Small-Polar-MMV Screening Library” (2021).

The filed quantity is “Percent Effect” (%). How 0% and 100% were set is not recorded. Most values in the screen are low, and negative values occur. This is an unselected part of the compounds tested.

MtTrpRS: 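Enzyme assay of tryptophanyl-tRNA synthetase; the read-out is not stated. Target: Tryptophan-tRNA ligase, Mycobacterium tuberculosis (UniProt P9WFT3). Compounds at 10 µM. Direction is not recorded; retested compounds ran higher, which suggests that high means inhibition. About 65,000 compounds were tested under these conditions; 0.098% (about 64) showed 50% or more at least once.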
ClpP1P2: 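Protease assay of ClpP1P2, read by the AMC dye that it sets free. Target: ClpP1P2, Mycobacterium tuberculosis (UniProt P9WPC5 and UniProt P9WPC3). Concentration: 50 µM. Direction is inferred from only a few compounds that gave an IC50; most scored high, so higher reads as stronger inhibition. Most other retested compounds had strongly negative values. About 69,000 compounds were tested under these conditions; 0.015% (about 10) showed 50% or more at least once.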

Result for CC(C)c1nc(CN(C)C2CCN(CCNS(C)(=O)=O)C2)no1 (centres undefined) was MtTrpRS: -4.916%; ClpP1P2: 10.53%. CC(C)CCC(=O)NCc1ccc(N2CCCCC2)cc1 read MtTrpRS: -2.511%; ClpP1P2: 0.7422%. Result for COc1ccc(CN(C)[C@@H]2CN(C(=O)c3cccnc3)C[C@H]2O)cc1 was ClpP1P2: -8.913%. CC1=CCN(C(=O)Nc2ccccc2N2CCOC2=O)CC1 gave MtTrpRS: -3.521%; ClpP1P2: -8.537%. For CC(NC(=O)N1CCCCCC1)c1ccc(S(N)(=O)=O)cc1 (centres undefined) the result was MtTrpRS: -0.9524%; ClpP1P2: -1.375%. Result for COCC(c1cccc(C(F)(F)F)c1)N(C)C(=O)c1ccncc1 (centres undefined) was MtTrpRS: 2.358%; ClpP1P2: 16.35%. CC(C)c1nc(-c2cc(C(=O)N3CCN(C)CC3)c3ccccn23)cs1 read MtTrpRS: 2.013%; ClpP1P2: -7.448%. CN(C(=O)C1CCOCC1)[C@@H]1CCC[C@@H](N2CCCC2)[C@@H]1O read ClpP1P2: -9.272%.

O=C(c1ccc(-c2ccc(O)nc2)s1)N1CCSCC1 gave MtTrpRS: 0.1295%; ClpP1P2: 11.61%. Result for O=C(C1SCCc2sccc21)N1CCN(CC(F)F)CC1 (centres undefined) was MtTrpRS: -1.906%; ClpP1P2: -1.14%. With Cc1cc(C(=O)NCc2ccc(F)cc2)c2c(C3CCNC3)noc2n1 (centres undefined) the screen gave MtTrpRS: -6.828%; ClpP1P2: 2.389%. N#Cc1cccc(CN2C[C@@H](NC(=O)C3CC3)[C@H]3OCCC[C@H]32)c1 read MtTrpRS: -7.131%; ClpP1P2: -6.926%. COc1ccc(OCC(=O)NS(=O)(=O)c2cc(F)ccc2F)cc1 read MtTrpRS: 1.316%; ClpP1P2: -8.843%. Result for O=C(CN1CCN(C(=O)c2cccc(-c3ccoc3)c2)CC1)C1CC1 was MtTrpRS: -3.725%; ClpP1P2: 7.1%. CC(C)N1CCN(C(=O)c2csc3nc(-c4ccc(Cl)cc4)cn23)CC1 gave MtTrpRS: -1.633%; ClpP1P2: -9.208%. With CN(C)CCNC(=O)CC1CCN(c2cccnn2)CC1 the screen gave MtTrpRS: 0.2114%; ClpP1P2: -14.96%.

Cn1cc(C(=O)NCC(Cc2cccc(F)c2)N2CCCCC2=O)nn1 (centres undefined) gave MtTrpRS: 1.503%; ClpP1P2: -16.86%. Result for Cn1cc(N2CCC3(CCCN(Cc4ccoc4)C3)C2=O)cn1 (centres undefined) was MtTrpRS: -1.604%; ClpP1P2: -8.913%. Cc1ncsc1CN1CC[C@H]2OCC[C@@]2(C(=O)N2CCCO2)C1 read MtTrpRS: -7.888%; ClpP1P2: 1.764%. CCN1CCCc2cc(CN3CCc4nc(C)[nH]c(=O)c4C3)ccc21 gave MtTrpRS: -3.771%; ClpP1P2: 11.75%. Result for Cc1cc(OCC(=O)N2CCCC(c3nc(C)c(C)s3)C2)no1 (centres undefined) was MtTrpRS: 27.12%; ClpP1P2: -24.28%. With COC(=O)NCCC(=O)NCC1(c2cccc(Cl)c2)CC1 the screen gave MtTrpRS: 3.565%; ClpP1P2: -2.445%. Result for COc1ncnc2c1CCN(Cc1cccs1)CC2 was MtTrpRS: -2.509%; ClpP1P2: -6.939%. CN(C)CC1CSCCCN1S(=O)(=O)c1ccc(C(F)(F)F)cc1 (centres undefined) gave MtTrpRS: -5.547%; ClpP1P2: 11.21%.

With Cn1cc(CNC(=O)c2cc3c(s2)CCCCC3)cn1 the screen gave MtTrpRS: -6.054%; ClpP1P2: 0.8637%. Result for CCn1cc(S(=O)(=O)N2CCCC2c2ccc(C)o2)cn1 (centres undefined) was MtTrpRS: 2.091%; ClpP1P2: -7.067%.

Repeated from the top, 2 entries:

With CC(C)c1nc(CN(C)C2CCN(CCNS(C)(=O)=O)C2)no1 (centres undefined) the screen gave MtTrpRS: -4.916%; ClpP1P2: 10.53%.
With CC(C)CCC(=O)NCc1ccc(N2CCCCC2)cc1 the screen gave MtTrpRS: -2.511%; ClpP1P2: 0.7422%.